These are yes or no findings as the source states them, for the method shown. In cells and extracts the contact can be indirect. Some results given as binding are weak or reduced against the parent protein; the word gives no strength. For some of these results: Tags and fused reporters may be left off the sequences shown.
How the values were obtained:
[1] = biological target: T1, TARP-γ3 (piRES2-EGFP_TARPγ3) (UniProt Q8VHX0); assay: co-IP
T1 sequence: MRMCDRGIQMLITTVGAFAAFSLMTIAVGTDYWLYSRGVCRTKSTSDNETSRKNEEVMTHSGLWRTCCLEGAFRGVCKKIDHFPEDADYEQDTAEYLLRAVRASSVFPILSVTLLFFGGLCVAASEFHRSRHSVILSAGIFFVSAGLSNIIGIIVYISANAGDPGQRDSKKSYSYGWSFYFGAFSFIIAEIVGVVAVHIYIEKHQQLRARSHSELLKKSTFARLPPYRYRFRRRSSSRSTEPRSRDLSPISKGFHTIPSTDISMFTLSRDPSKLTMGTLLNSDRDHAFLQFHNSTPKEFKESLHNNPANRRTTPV

Amino acid sequences for entries named in this document (tags omitted).
UniProt O43526: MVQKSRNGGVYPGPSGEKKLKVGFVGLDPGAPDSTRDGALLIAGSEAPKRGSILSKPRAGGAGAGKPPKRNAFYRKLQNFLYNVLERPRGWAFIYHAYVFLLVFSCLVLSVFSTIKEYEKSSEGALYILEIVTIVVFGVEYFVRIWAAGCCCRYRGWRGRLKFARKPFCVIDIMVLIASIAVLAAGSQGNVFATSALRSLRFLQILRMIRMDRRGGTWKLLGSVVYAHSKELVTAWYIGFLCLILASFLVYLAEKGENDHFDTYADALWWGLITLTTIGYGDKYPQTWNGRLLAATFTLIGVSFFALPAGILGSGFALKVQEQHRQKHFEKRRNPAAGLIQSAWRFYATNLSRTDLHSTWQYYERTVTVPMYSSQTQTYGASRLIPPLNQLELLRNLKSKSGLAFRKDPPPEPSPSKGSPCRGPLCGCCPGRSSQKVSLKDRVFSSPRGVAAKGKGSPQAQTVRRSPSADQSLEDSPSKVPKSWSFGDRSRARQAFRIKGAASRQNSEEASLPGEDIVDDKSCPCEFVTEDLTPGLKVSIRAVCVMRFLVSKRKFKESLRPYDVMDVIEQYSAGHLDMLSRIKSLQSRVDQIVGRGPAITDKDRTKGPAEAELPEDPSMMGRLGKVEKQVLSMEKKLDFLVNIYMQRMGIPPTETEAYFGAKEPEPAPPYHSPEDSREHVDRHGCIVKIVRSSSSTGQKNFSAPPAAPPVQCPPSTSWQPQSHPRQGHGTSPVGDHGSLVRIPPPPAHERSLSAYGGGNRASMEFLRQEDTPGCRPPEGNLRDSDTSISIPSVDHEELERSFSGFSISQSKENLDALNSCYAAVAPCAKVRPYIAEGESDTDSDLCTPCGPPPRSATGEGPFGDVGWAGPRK
UniProt O88943: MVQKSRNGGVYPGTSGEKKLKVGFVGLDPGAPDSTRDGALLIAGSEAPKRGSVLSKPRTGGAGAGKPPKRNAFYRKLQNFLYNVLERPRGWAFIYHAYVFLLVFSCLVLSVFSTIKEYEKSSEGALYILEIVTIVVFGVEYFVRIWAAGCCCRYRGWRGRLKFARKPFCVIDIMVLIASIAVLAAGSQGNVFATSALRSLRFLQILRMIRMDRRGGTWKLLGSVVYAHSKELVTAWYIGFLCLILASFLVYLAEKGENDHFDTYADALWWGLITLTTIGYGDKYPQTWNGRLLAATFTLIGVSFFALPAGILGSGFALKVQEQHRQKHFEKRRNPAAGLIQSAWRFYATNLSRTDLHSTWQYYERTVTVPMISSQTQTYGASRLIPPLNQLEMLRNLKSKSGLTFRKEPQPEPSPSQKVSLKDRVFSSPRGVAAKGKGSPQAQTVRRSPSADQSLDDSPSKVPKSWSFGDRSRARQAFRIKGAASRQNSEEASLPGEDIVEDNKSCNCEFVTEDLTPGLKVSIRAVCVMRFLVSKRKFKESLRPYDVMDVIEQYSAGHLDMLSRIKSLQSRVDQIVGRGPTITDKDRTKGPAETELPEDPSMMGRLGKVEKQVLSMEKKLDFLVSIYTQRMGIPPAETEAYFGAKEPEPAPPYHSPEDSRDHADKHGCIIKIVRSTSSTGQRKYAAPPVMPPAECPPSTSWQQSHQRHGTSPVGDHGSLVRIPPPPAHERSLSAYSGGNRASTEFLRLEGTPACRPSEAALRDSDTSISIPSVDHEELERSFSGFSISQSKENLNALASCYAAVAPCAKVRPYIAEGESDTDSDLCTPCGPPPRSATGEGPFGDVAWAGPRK

[2] = biological target: T2, TARP-γ2 (pcDNA3.1_TARPγ2) (UniProt Q71RJ2); assay: co-IP
T2 sequence: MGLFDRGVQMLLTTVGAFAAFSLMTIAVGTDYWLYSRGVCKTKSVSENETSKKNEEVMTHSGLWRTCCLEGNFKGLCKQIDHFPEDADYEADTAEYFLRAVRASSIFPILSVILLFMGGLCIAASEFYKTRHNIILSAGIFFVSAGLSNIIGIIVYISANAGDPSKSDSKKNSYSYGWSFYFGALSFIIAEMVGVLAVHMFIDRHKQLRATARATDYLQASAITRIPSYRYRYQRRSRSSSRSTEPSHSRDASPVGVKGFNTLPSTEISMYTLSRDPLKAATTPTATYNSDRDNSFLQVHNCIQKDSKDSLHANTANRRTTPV

[3] = biological target: T3, TARP-γ8 (piRES2-EGFP_TARPγ8) (UniProt Q8VHW5); assay: co-IP
T3 sequence: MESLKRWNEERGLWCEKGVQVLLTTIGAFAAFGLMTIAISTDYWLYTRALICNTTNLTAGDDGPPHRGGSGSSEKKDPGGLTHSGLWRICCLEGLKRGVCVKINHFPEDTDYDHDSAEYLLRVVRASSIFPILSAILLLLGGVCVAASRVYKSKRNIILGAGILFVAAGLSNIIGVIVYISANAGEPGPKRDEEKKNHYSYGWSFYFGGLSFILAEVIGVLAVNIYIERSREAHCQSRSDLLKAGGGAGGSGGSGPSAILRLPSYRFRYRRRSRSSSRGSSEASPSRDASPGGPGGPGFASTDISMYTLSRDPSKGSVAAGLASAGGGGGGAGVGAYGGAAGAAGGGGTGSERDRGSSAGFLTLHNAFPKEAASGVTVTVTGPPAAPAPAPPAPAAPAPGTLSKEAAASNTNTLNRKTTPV

[4] = biological target: T4, TARP-γ3 (endogenous, rat hippocampal neurons) (rat (endogenous in hippocampal neurons)) (UniProt Q8VHX0); assay: proximity ligation
T4 sequence: T1 sequence

[5] = biological target: T5, TARP-γ2 (stargazin; endogenous, rat neurons) (rat (endogenous in cortical and hippocampal neurons)) (UniProt Q71RJ2); assay: proximity ligation
T5 sequence: T2 sequence

[6] = biological target: T6, TARP-γ8 (endogenous, rat hippocampal neurons) (rat (endogenous in hippocampal neurons)) (UniProt Q8VHW5); assay: proximity ligation
T6 sequence: T3 sequence

[7] = biological target: T7, TARPγ2-CFAST-HA (from pFUGW_mCherry-TARPγ2-CFAST-HA) (UniProt Q71RJ2); assay: split reporter
T7 sequence: T2 sequence

Substance: EGFP-Kv7.2-HA (pEGFP-C2_Kv7.2-HA) (from UniProt O43526 1-872)
- binding [1]: binds
- binding [2]: binds
- binding [3]: binds

Substance: Kv7.2 subunit of M-channels (endogenous, rat neurons) (from UniProt O88943 1-852)
- binding [4]: binds
- binding [5]: binds
- binding [6]: binds

Substance: NFAST-FLAG-Kv7.2 (pFUGW_NFAST-FLAG-4xGGS-Kv7.2) (from UniProt O43526 1-872)
- binding [7]: binds
